Laboratory results from paper doi:10.1101/2024.05.26.595989.
No constants are given. Whether binding was seen depends on the method and setting. Some results given as binding are weak or reduced against the parent protein; the word gives no strength.

Chains of the proteins cited; added tags and fusions are not shown.
UniProt Q06518: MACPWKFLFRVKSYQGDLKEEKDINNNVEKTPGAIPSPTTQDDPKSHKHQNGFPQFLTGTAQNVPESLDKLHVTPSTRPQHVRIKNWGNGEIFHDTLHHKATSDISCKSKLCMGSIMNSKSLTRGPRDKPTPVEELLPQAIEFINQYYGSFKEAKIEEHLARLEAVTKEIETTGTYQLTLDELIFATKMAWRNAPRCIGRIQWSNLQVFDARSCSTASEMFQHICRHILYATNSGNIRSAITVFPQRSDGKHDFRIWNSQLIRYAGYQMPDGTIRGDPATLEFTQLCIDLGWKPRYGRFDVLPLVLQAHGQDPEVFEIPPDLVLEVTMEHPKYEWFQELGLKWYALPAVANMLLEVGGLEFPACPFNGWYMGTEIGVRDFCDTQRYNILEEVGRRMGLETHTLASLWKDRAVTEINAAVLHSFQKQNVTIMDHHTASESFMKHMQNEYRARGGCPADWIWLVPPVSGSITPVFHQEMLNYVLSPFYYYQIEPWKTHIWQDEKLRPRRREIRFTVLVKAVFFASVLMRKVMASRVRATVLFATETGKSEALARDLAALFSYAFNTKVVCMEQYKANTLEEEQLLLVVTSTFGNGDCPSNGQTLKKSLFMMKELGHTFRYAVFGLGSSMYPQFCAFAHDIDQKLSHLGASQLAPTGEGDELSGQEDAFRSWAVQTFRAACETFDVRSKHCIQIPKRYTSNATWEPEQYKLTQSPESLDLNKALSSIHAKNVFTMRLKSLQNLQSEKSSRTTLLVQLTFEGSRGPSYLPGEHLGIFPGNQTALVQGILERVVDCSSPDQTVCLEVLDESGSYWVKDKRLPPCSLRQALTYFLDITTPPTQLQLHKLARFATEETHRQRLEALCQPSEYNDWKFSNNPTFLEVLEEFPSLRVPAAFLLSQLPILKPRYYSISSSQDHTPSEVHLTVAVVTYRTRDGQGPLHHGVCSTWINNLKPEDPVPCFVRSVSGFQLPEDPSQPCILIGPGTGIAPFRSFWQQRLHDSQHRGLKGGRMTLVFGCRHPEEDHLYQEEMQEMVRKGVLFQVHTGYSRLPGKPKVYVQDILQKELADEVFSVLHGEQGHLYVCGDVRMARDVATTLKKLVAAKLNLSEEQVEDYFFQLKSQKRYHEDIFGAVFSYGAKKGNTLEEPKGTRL

Biological target: inducible nitric oxide synthase (iNOS), rat, endogenous in H-4-II-E hepatoma cells (rat (endogenous in H-4-II-E)) (UniProt Q06518)
Assay: non-reducing SDS-PAGE with immunoblot

binding: binds
Substance: inducible nitric oxide synthase (iNOS), rat, endogenous in H-4-II-E hepatoma cells (from UniProt Q06518 1-1147) (enzyme)
